PubChem BioAssay AID686937, Drosophila RNAi Screening Center – 2013
In all, the deposit lists about 23,000 reagents; this is a random part of those that have a named target and a result. 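Reduced-secretion tags in replicate 1 do not always agree with the z-scores; no criterion for assigning the tags was given.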 A plus sign joins genes that one reagent is predicted to hit. Not given: the amount of reagent.

- Screen: 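Knock-downs that reduce output of a secreted reporter enzyme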 (primary screen)
- System: Drosophila S2 cells expressing secreted horseradish peroxidase
- Reagent: long dsRNA against Drosophila genes
- Duration: about 5.5 days (5 days dsRNA, then 12 h reporter induction)
- Treatment: reporter expression induced after 5 days of dsRNA, read 12 h later; inducer not stated
- Read-out: 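After 5 days of dsRNA and 12 h of reporter induction, medium peroxidase read by chemiluminescence and scored as per-plate z-score; higher values mean more reporter released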
- Reading the numbers: z-score: higher = more reporter secreted into medium

| target gene | dsRNA | z-score, replicate 1 | z-score, replicate 2 | z-score, replicate 3 | z-score, replicate 4 | phenotype, replicate 1 |
| --- | --- | --- | --- | --- | --- | --- |
| CG30177 | DRSC22680 | -1.38 | -0.45 | – | – | – |
| tsl | DRSC17090 | 0.49 | 0.37 | – | – | – |
| CG15306 | DRSC17993 | 0.45 | 0.28 | – | – | – |
| CG15306 | DRSC18240 | 0.32 | 0.47 | 0.46 | 0.22 | – |
| G6P | DRSC00414 | 0.05 | -0.04 | – | – | – |
| CG7252 | DRSC10789 | 0.26 | 0.59 | – | – | – |
| CG7252 | DRSC21492 | -0.78 | -0.22 | – | – | reduced secretion |
| Npc2h | DRSC14297 | 0.16 | 0.32 | – | – | – |
| Polr3A | DRSC19766 | -0.33 | -0.15 | – | – | – |
| CG32767 | DRSC18386 | -0.13 | -1.23 | – | – | – |
| wkd | DRSC15777 | 0.27 | 0.19 | – | – | – |
| RpS30 | DRSC15119 | -2.29 | -3.25 | – | – | reduced secretion |
| CG5255 | DRSC15754 | 0.14 | -0.24 | – | – | – |
| CG13771 | DRSC02277 | 0.14 | 0.04 | – | – | – |
| CG3739 | DRSC15510 | 0.37 | 0.51 | – | – | – |
| CG31642 | DRSC02919 | 0.38 | 0.29 | – | – | – |
| CG6503 | DRSC16056 | -0.37 | -0.4 | – | – | – |
| lncRNA:sphinx + ATPsynF | DRSC17191 | -0.78 | -0.72 | – | – | – |
| CG13862 | DRSC14712 | 0.49 | 0.59 | – | – | – |
| lncRNA:CR41601 | DRSC22158 | 0.21 | -1.53 | – | – | reduced secretion |
| Ufl1 | DRSC12527 | 0.34 | 0.27 | – | – | – |
| CG13064 | DRSC09947 | 0.31 | 0.21 | – | – | – |
| CG33702 | DRSC08986 | 0.29 | 0.38 | – | – | – |
| NimB2 | DRSC22645 | 0.23 | 0.19 | – | – | – |
| CG34269 | DRSC07884 | 0.07 | 0.38 | – | – | – |
| Nprl3 | DRSC11044 | 0.66 | 0.56 | – | – | – |
| CG34228 | DRSC05300 | 0.4 | 0.19 | – | – | – |
| Muc4B | DRSC18062 | -0.12 | -0.86 | – | – | – |
| Muc4B | DRSC18063 | -0.09 | -0.5 | – | – | – |
| CG14839 | DRSC14963 | 0.32 | 0.47 | -0.09 | 0.37 | – |
| Prdm13 | DRSC09970 | 0.4 | 0.41 | – | – | – |
| Prosbeta7 | DRSC12186 | -4.93 | -4.57 | – | – | reduced secretion |
| CG6984 | DRSC07013 | 0.28 | 0.24 | – | – | – |
| CG1888 | DRSC06797 | 0.32 | 0.29 | – | – | – |
| gish | DRSC16154 | 0.62 | 0.37 | – | – | – |
| CG17717 | DRSC18130 | 0.23 | -0.18 | – | – | – |
| pnr | DRSC17027 | 0.27 | 0.3 | – | – | – |
| lncRNA:CR32690 | DRSC22219 | 0 | -0.01 | – | – | – |
| RpL6 | DRSC14323 | -2.86 | -1.85 | – | – | reduced secretion |
| RpL6 | DRSC22384 | -1.22 | -1.81 | – | – | reduced secretion |
| sala + CG43355 | DRSC01188 | 0.5 | 0.11 | -0.08 | -0.49 | – |
| sala + CG43355 | DRSC03605 | -0.42 | 0.2 | – | – | – |
| CG4073 | DRSC15542 | 0.13 | 0.69 | – | – | – |
| Ctr9 | DRSC08562 | 0.4 | 0.25 | – | – | – |
| CG13992 | DRSC02324 | 0.02 | 0.29 | – | – | – |
| CG33337 | DRSC13632 | 0.29 | 0.38 | 0.53 | 0.42 | – |
| CG13426 | DRSC06388 | -10.8 | 0.4 | – | – | reduced secretion |
| CG11162 | DRSC19391 | 0.01 | -0.01 | – | – | – |
| CG11162 | DRSC22538 | -2.27 | -0.54 | – | – | reduced secretion |
| nAChRalpha2 | DRSC17009 | 0.21 | 0.29 | – | – | – |
| CG34196 | DRSC05704 | 0.49 | 0.47 | – | – | – |
| Marc | DRSC06614 | 0.01 | 0.37 | – | – | – |
| 4E-T | DRSC17201 | 0.26 | 0.06 | – | – | – |
| 4E-T | DRSC17208 | 0.31 | 0.26 | – | – | – |
| CG14421 | DRSC17918 | 0.49 | 0.49 | – | – | – |
| CG32599 | DRSC19433 | 0.2 | 0.18 | – | – | – |
| CG34309 | DRSC14838 | 0.11 | 0.2 | – | – | – |
| CG17780 | DRSC15265 | 0.24 | 0.27 | – | – | – |
| CG3323 | DRSC18303 | 0.28 | 0.43 | – | – | – |
| Uros2 | DRSC16505 | 0.2 | 0.14 | – | – | – |
| Agpat1 | DRSC19879 | 0.26 | 0.69 | – | – | – |
| Agpat1 | DRSC19880 | 0.18 | 0.29 | – | – | – |
| CG14624 | DRSC18634 | 0.32 | 0.33 | – | – | – |
| CG2906 | DRSC06841 | 0.34 | 0.4 | – | – | – |
| Hasp | DRSC02022 | 0.25 | 0.23 | – | – | – |
| CG2182 | DRSC12308 | 0.32 | 0.2 | – | – | – |
| Fer1HCH | DRSC16671 | -0.41 | -1.21 | – | – | – |
| Taf8 | DRSC20363 | 0.1 | 0.23 | – | – | – |
| Ugt303B2 | DRSC14198 | 0.44 | 0.52 | – | – | – |
| Ugt303B2 | DRSC22864 | 0.64 | 0.97 | – | – | – |
| Smox | DRSC18716 | -0.08 | -0.09 | – | – | – |
| chm | DRSC03341 | 0.31 | 0.23 | – | – | – |
| CG14442 | DRSC17935 | -0.27 | 0.14 | – | – | – |
| Pfdn5 | DRSC16183 | 0.16 | 0.29 | – | – | – |
| Nin | DRSC02007 | 0.28 | 0.22 | – | – | – |
| lov | DRSC04665 | 0.47 | 0.36 | 0.68 | 0.67 | – |
| CG5641 | DRSC15852 | 0.34 | 0.44 | – | – | – |
| Rad60 | DRSC15580 | 0.27 | 0.28 | – | – | – |
| CG31191 | DRSC13455 | 0.27 | 0.34 | – | – | – |
| CG31191 | DRSC15214 | 0.24 | -0.19 | – | – | – |
| CG31191 | DRSC15215 | 0.03 | -0.47 | – | – | – |
| CG14253 | DRSC14748 | 0.36 | 0.37 | – | – | – |
